# According to the supplement of paper PMC4604168 (melanoma cell lines):
# This is one part of the list. Many values rest on one well or one pass, so single values are uncertain.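 Cells were imaged in 1,536-well plates, and nuclei stained with an antibody against cleaved PARP were counted against all DNA-stained nuclei to give the apoptosis fraction. Screening doses were chosen to leave most cells alive, and resting and induced cleaved-PARP levels differ strongly between cell lines.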
# Legend:
# Test in all cases: cleaved PARP positive nuclei fraction relative to DMSO control; melanoma cells; higher = more apoptosis
# Conditions in all cases: library dose: low library concentration; 72 h
# 501Mel = system: 501Mel
# A101D = system: A101D
# A2058 = system: A2058
# A375 = system: A375
# C32 = system: C32
# CBRC008 = system: CBRC008 (line from a melanoma biopsy)
# CBRC013 = system: CBRC013 (line from a melanoma biopsy)
# CBRC014 = system: CBRC014 (line from a melanoma biopsy)
# CBRC016 = system: CBRC016 (line from a melanoma biopsy)
# CBRC017 = system: CBRC017 (line from a melanoma biopsy)
# COLO792 = system: COLO792
# COLO800 = system: COLO800
# COLO829 = system: COLO829
# G361 = system: G361
# IPC-298 = system: IPC-298
# IST-MEL1 = system: IST-MEL1
# LB2518-MEL = system: LB2518-MEL
# LOXIMVI = system: LOXIMVI
# MEL-HO = system: MEL-HO
SMILES,cleaved PARP positive nuclei fraction (501Mel) [%],cleaved PARP positive nuclei fraction (A101D) [%],cleaved PARP positive nuclei fraction (A2058) [%],cleaved PARP positive nuclei fraction (A375) [%],cleaved PARP positive nuclei fraction (C32) [%],cleaved PARP positive nuclei fraction (CBRC008) [%],cleaved PARP positive nuclei fraction (CBRC013) [%],cleaved PARP positive nuclei fraction (CBRC014) [%],cleaved PARP positive nuclei fraction (CBRC016) [%],cleaved PARP positive nuclei fraction (CBRC017) [%],cleaved PARP positive nuclei fraction (COLO792) [%],cleaved PARP positive nuclei fraction (COLO800) [%],cleaved PARP positive nuclei fraction (COLO829) [%],cleaved PARP positive nuclei fraction (G361) [%],cleaved PARP positive nuclei fraction (IPC-298) [%],cleaved PARP positive nuclei fraction (IST-MEL1) [%],cleaved PARP positive nuclei fraction (LB2518-MEL) [%],cleaved PARP positive nuclei fraction (LOXIMVI) [%],cleaved PARP positive nuclei fraction (MEL-HO) [%]
"COCC[n+]1c2c(n(Cc3cnccn3)c1C)C(=O)c1ccccc1C2=O + Cn1cncc1[C@@](N)(c1ccc(Cl)cc1)c1ccc2c(c1)c(-c1cccc(Cl)c1)cc(=O)n2C [tipifarnib] (first compound 0.0004 µM, partner dose 0.01 µM)",187,98.8,186,56.8,134,384,109,102,108,96.2,113,136,98.1,224,71.5,75.5,219,94.6,153
"CC(=O)c1c(C)c2cnc(Nc3ccc(N4CCNCC4)cn3)nc2n(C2CCCC2)c1=O [palbociclib] + CN(NC(=O)CC(=O)NN(C)C(=S)c1ccccc1)C(=S)c1ccccc1 [STA4783] (first compound 0.04 µM, partner dose 0.006 µM)",680,104,305,9240,199,1620,117,568,326,494,150,307,50.3,110,54.7,63.6,154,157,70.5
"Nc1cccc2c1CN(C1CCC(=O)NC1=O)C2=O (configuration not stated) [lenalidomide] + CC1(C)NC(=O)N(c2ccc([N+](=O)[O-])c(C(F)(F)F)c2)C1=O [nilutamide] (first compound 1 µM, partner dose 1 µM)",183,39.5,39.7,64.1,141,178,89.3,78.2,96.3,88.1,64.3,32.9,79.2,67.7,93.4,33,49,84.8,67.6
"C=CCn1c(=O)c2cnc(Nc3ccc(N4CCN(C)CC4)cc3)nc2n1-c1cccc(C(C)(C)O)n1 + O=C(O)c1ccc(-c2c[nH]c3ncc(-c4ccccc4)cc23)cc1C1CCCC1 [GSK650394] (first compound 0.02 µM, partner dose 0.16 µM)",104,47.6,134,137,156,107,78.3,118,154,135,104,178,63.6,96.4,52.3,111,215,119,78.7
"C=CCNC1=C2C[C@@H](C)C[C@H](OC)[C@H](O)[C@@H](C)/C=C(\C)[C@H](OC(N)=O)[C@@H](OC)/C=C\C=C(/C)C(=O)NC(=CC1=O)C2=O [Tanespimycin] + CN(NC(=O)CC(=O)NN(C)C(=S)c1ccccc1)C(=S)c1ccccc1 [STA4783] (first compound 0.002 µM, partner dose 0.006 µM)",181,49.8,117,3100,289,1690,281,467,175,138,164,68.6,108,454,178,85.2,68.5,25.7,134
"O=C(CCCCCCC(=O)Nc1ccccc1)NO [vorinostat] + O=C(O)c1ccc(-c2c[nH]c3ncc(-c4ccccc4)cc23)cc1C1CCCC1 [GSK650394] (first compound 0.08 µM, partner dose 0.16 µM)",93.4,84.9,150,234,43.4,247,87.4,88.4,159,142,115,104,124,94.3,291,35.8,105,47.6,65
"Cc1cc(N2CCOCC2)cc2[nH]c(-c3c(NC[C@@H](O)c4cccc(Cl)c4)cc[nH]c3=O)nc12 + NCC(=O)Nc1ccc(-n2nc(C(F)(F)F)cc2-c2ccc3c(ccc4ccccc43)c2)cc1 [OSU03012] (first compound 0.2 µM, partner dose 1 µM)",155,71.9,98.9,7470,27.9,305,221,110,133,117,107,217,118,122,219,340,50.7,486,277
"C[C@]1(c2nc3c(C(N)=O)cccc3[nH]2)CCCN1 [Veliparib] + COc1cc(Nc2ncc(F)c(Nc3ccc4c(n3)NC(=O)C(C)(C)O4)n2)cc(OC)c1OC [Tamatinib] (first compound 1.4 µM, partner dose 0.4 µM)",103,64.8,164,45.8,158,151,124,95.3,70.6,108,169,77.2,221,27.9,123,61.2,183,151,160
"O=C(CCCCCCC(=O)Nc1ccccc1)NO [vorinostat] + Cn1cncc1[C@@](N)(c1ccc(Cl)cc1)c1ccc2c(c1)c(-c1cccc(Cl)c1)cc(=O)n2C [tipifarnib] (first compound 0.08 µM, partner dose 0.01 µM)",40.6,93.9,98.3,112,72.5,89.3,96.2,94.4,155,94.6,111,87.5,85.4,54.8,45,54,109,150,80.4
"NC(=O)Nc1cc(-c2cccc(F)c2)sc1C(=O)N[C@H]1CCCNC1 + OCCn1cc(-c2cnc3nnn(Cc4ccc5ncccc5c4)c3n2)cn1 [PF04217903] (first compound 0.02 µM, partner dose 1 µM)",69.6,103,47.1,459,122,53.2,78.1,95.4,87.7,109,49.9,72.9,79,85.9,40.1,90.8,42.8,179,150
"NC(=O)Nc1cc(-c2cccc(F)c2)sc1C(=O)N[C@H]1CCCNC1 + O=C(O)c1ccc(-c2c[nH]c3ncc(-c4ccccc4)cc23)cc1C1CCCC1 [GSK650394] (first compound 0.02 µM, partner dose 0.16 µM)",82.7,210,193,570,124,177,111,106,130,133,105,111,105,80.9,48.5,92.4,40.6,400,49.2
"Cc1ccc(NC(=O)c2cccc(N(C)C)c2)cc1NC(=O)c1ccc(O)cc1 + Cn1cncc1[C@@](N)(c1ccc(Cl)cc1)c1ccc2c(c1)c(-c1cccc(Cl)c1)cc(=O)n2C [tipifarnib] (first compound 2 µM, partner dose 0.01 µM)",220,93.3,155,249,122,132,96.4,116,123,87.8,80.3,151,63,105,52.3,102,126,39.2,96.3
"O=C(CCCCCCC(=O)Nc1ccccc1)NO [vorinostat] + CC1(C)NC(=O)N(c2ccc([N+](=O)[O-])c(C(F)(F)F)c2)C1=O [nilutamide] (first compound 0.08 µM, partner dose 1 µM)",172,59.6,30.6,36.2,76.7,31.9,79.6,64.2,71.8,97.8,147,46.7,48.2,78.7,42.5,65.6,149,224,137
"Cc1nc(Nc2ncc(C(=O)Nc3c(C)cccc3Cl)s2)cc(N2CCN(CCO)CC2)n1 [dasatanib] + CC1(C)NC(=O)N(c2ccc([N+](=O)[O-])c(C(F)(F)F)c2)C1=O [nilutamide] (first compound 0.004 µM, partner dose 1 µM)",94.3,84.5,111,188,356,36,102,112,85,112,141,39.2,139,45.3,47,91.1,96.5,76,94.1
"Cc1cc(N2CCOCC2)cc2[nH]c(-c3c(NC[C@@H](O)c4cccc(Cl)c4)cc[nH]c3=O)nc12 + COc1cc2c(Oc3ccc4[nH]c(C)cc4c3F)ncnc2cc1OCCCN1CCCC1 [cediranib] (first compound 0.2 µM, partner dose 0.4 µM)",347,88.7,111,244,141,153,146,87.4,77.2,70,151,174,77.1,217,203,92.4,94.1,253,65.3
"COc1cc(Nc2ncc(F)c(Nc3ccc4c(n3)NC(=O)C(C)(C)O4)n2)cc(OC)c1OC [Tamatinib] + CN(NC(=O)CC(=O)NN(C)C(=S)c1ccccc1)C(=S)c1ccccc1 [STA4783] (first compound 0.4 µM, partner dose 0.006 µM)",200,70.2,271,4090,139,1160,151,594,293,372,340,69,177,122,59.5,61.5,1640,136,146
"COc1cc(Nc2ncc(F)c(Nc3ccc4c(n3)NC(=O)C(C)(C)O4)n2)cc(OC)c1OC [Tamatinib] + CC(C)(C)c1cnc(CSc2cnc(NC(=O)C3CCNCC3)s2)o1 [SNS-032] (first compound 0.4 µM, partner dose 0.01 µM)",261,186,140,76.5,52.5,319,164,67.9,32.9,89.9,159,91.4,92.6,101,99.7,202,120,142,68.2
"OCCn1cc(-c2cnc3nnn(Cc4ccc5ncccc5c4)c3n2)cn1 + O=C(O)c1ccc(-c2c[nH]c3ncc(-c4ccccc4)cc23)cc1C1CCCC1 [GSK650394] (first compound 1 µM, partner dose 0.16 µM)",94.2,107,115,157,52.9,470,91.1,64.6,182,117,114,138,66.6,88.2,398,138,220,92.1,35.6

# Some of the entries so far, with tabs:
SMILES	cleaved PARP positive nuclei fraction (501Mel) [%]	cleaved PARP positive nuclei fraction (A101D) [%]	cleaved PARP positive nuclei fraction (A2058) [%]	cleaved PARP positive nuclei fraction (A375) [%]	cleaved PARP positive nuclei fraction (C32) [%]	cleaved PARP positive nuclei fraction (CBRC008) [%]	cleaved PARP positive nuclei fraction (CBRC013) [%]	cleaved PARP positive nuclei fraction (CBRC014) [%]	cleaved PARP positive nuclei fraction (CBRC016) [%]	cleaved PARP positive nuclei fraction (CBRC017) [%]	cleaved PARP positive nuclei fraction (COLO792) [%]	cleaved PARP positive nuclei fraction (COLO800) [%]	cleaved PARP positive nuclei fraction (COLO829) [%]	cleaved PARP positive nuclei fraction (G361) [%]	cleaved PARP positive nuclei fraction (IPC-298) [%]	cleaved PARP positive nuclei fraction (IST-MEL1) [%]	cleaved PARP positive nuclei fraction (LB2518-MEL) [%]	cleaved PARP positive nuclei fraction (LOXIMVI) [%]	cleaved PARP positive nuclei fraction (MEL-HO) [%]
COCC[n+]1c2c(n(Cc3cnccn3)c1C)C(=O)c1ccccc1C2=O + Cn1cncc1[C@@](N)(c1ccc(Cl)cc1)c1ccc2c(c1)c(-c1cccc(Cl)c1)cc(=O)n2C [tipifarnib] (first compound 0.0004 µM, partner dose 0.01 µM)	187	98.8	186	56.8	134	384	109	102	108	96.2	113	136	98.1	224	71.5	75.5	219	94.6	153
C=CCNC1=C2C[C@@H](C)C[C@H](OC)[C@H](O)[C@@H](C)/C=C(\C)[C@H](OC(N)=O)[C@@H](OC)/C=C\C=C(/C)C(=O)NC(=CC1=O)C2=O [Tanespimycin] + CN(NC(=O)CC(=O)NN(C)C(=S)c1ccccc1)C(=S)c1ccccc1 [STA4783] (first compound 0.002 µM, partner dose 0.006 µM)	181	49.8	117	3100	289	1690	281	467	175	138	164	68.6	108	454	178	85.2	68.5	25.7	134
